Substitutions are numbered along the chain they refer to. These are yes or no findings as the source states them, for the method shown. Some entries that bind do so weakly or less than the wild type.
How the values were obtained:
[1] = target: recombinant human SLPI (Secretory leukocyte protease inhibitor), R&D Systems Cat#260-PI (human) (UniProt P03973); test: ELISA rescreen on SLPI
[2] = target: recombinant human SLPI (Secretory leukocyte protease inhibitor), R&D Systems Cat#260-PI (human) (UniProt P03973); test: SLPI-specific hemolytic plaque assay on SLPI-coated SRBCs

Sequences of proteins named here, by UniProt entry; tags and fusion partners are left off. A change or cut given only in a name is not applied to a line headed by its entry.
UniProt P03973: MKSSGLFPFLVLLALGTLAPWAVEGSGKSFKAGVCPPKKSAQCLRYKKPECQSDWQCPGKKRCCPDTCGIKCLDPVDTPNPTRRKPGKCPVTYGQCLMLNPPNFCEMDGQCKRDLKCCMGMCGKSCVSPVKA

B1: 43H7 (antibody, human IgG2, V domains shown)
VH: QVQLVESGGGVVQPGRSLRLSCAASGFTFSTYGMHWVRQAPGKGLEWVTFIWYDGRNKYYADSVKGRFTVSRDNSKNTLYLQMNSLRAEDTAVYYCARGDDYGDYHPHYYYYGLDVWGQGTTVTVSS
VL: DIVMTQTPLSLSVTPGQPASISCKSSQSLLDSDGKTYLYWYLQKPGQPPQLLIYEVSNRFSGVPDRFSGSGSGTDFTLKISRVEAEDVAYYYCMQSIQLPWTFGQGTKVEIK
[1]
  binding: binds
[2]
  binding: binds

B2: 9G12 (antibody, human IgG2, V domains shown)
VH: B1 VH with T31G, T49A, D54N, R56N, N57D, K58N, A61T, V70I, L114M
VL: B1 VL with V88I, A89G, Y90V, M94L
[1]
  binding: binds
[2]
  binding: binds

Reference: patent US20050142137A1
